Test results: the supplement of paper PMC12889115
Some of the results follow. Values are raw readings; no control value is given beside them.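 In the initial screen, polymyxin B was used at a concentration that permeabilizes Salmonella's outer membrane but not its inner membrane. Maximum growth was set by DMSO wells with or without polymyxin B. Since plates varied, data were ranked per plate, and compounds giving the lowest OD600 advanced as hits.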

Test system: Salmonella enterica serovar Typhimurium SL1344
Test: bacterial growth OD600 after 18 h with compound and polymyxin B; higher = more bacterial growth (less inhibition)
Settings: 50 µM, Mueller-Hinton broth

SMILES | bacterial growth OD600 (polymyxin B 1 µg/mL) | bacterial growth OD600 (polymyxin B 0.75 µg/mL)
COc1cccc(CCNC(=O)c2cn(CC3CCCO3)nn2)c1OC (configuration not stated) | 0.796 | 
COc1ccc(CNC(=O)CCC2CCCN(Cc3ccc(O)c(OC)c3)C2)c(OC)c1 (configuration not stated) |  | 0.798
O=C(NC1CC(=O)N(Cc2cccc(F)c2)C1)c1ccccn1 (configuration not stated) | 0.842 | 
Cc1nn(C)c(C)c1S(=O)(=O)N1CCCC(CNC(=O)c2ccc3c(c2)OCO3)C1 (configuration not stated) | 0.981 | 
Cc1nc(N2CCCC2C(=O)NCCc2ccccc2F)nc2ccccc12 (configuration not stated) |  | 0.647
CCCCN(Cc1ccccc1)Cc1nc(-c2ccc(C(=O)OC)cc2)no1 | 1.02 | 
CCCCNC(=O)C1CC(=O)c2sc(NC(=O)C3CCC3)nc2C1 (configuration not stated) |  | 0.842
O=C(CCC(F)(F)F)N(CC1CCN(Cc2ccccc2F)CC1)CC1CCCO1 (configuration not stated) | 0.917 | 
CCOC(=O)C1(CCCc2ccccc2)CCCN(C(=O)c2coc3c2C(=O)CCC3)C1 (configuration not stated) | 0.006 | 
CN(Cc1nc(-c2ccc3c(c2)OCO3)no1)C1CC(C)(C)NC(C)(C)C1 | 0.903 | 
COCCN1C(=O)CC(CC(=O)N2CC3CC4CC(C3)CC2C4)(c2ccccc2F)C1=O (configuration not stated) |  | 0.758
Cc1nc(N2CCC(C(=O)NC(C)(C)C)CC2)nc2ccccc12 |  | 0.963
Cc1ccc2c(c1)CN(C1CCSCC1)CC(c1ccsc1)O2 (configuration not stated) |  | 0.427
CCN1CCC(NC2CC(=O)N(CCc3cccc(Cl)c3)C2)CC1 (configuration not stated) | 0.912 | 
COc1ccccc1OCC(=O)NCC1CCCN(Cc2ccc(O)c(Cl)c2)C1 (configuration not stated) | 0.813 | 
O=C(Cc1ccc(N2CCC(NCCC3COc4ccccc4O3)CC2)cc1)NCc1ccccc1 (configuration not stated) |  | 0.815

SMILES | bacterial growth OD600 (polymyxin B 1 µg/mL) | bacterial growth OD600 (polymyxin B 0.75 µg/mL)
O=C1N(Cc2cccnc2)C[C@@H]2C[C@@H](c3cccc(C(F)(F)F)c3)N3CCC[C@@]123 |  | 0.749
CCc1ccc(CN(C)Cc2nc(-c3ccc(OC)c(OC)c3OC)no2)cc1 | 0.906 | 
Cn1cc(CNC(=O)CCN2Cc3ccccc3OC(c3ccccc3F)C2)cn1 (configuration not stated) |  | 0.754
O=C(c1ccc(C(F)(F)F)cc1)C1CCCN(C(=O)CSc2ccccn2)C1 (configuration not stated) | 0.578 | 
COc1cccc(NC(=O)CCC2CCN(S(=O)(=O)N(C)C)CC2)c1 | 0.957 | 
Cc1occc1C(=O)NCc1cccnc1N(C)C | 0.935 | 
CC(C)c1ccc(NC2CCCN(C(=O)c3cnn(C(C)C)c3)C2)cc1 (configuration not stated) | 0.887 | 
COc1ccc(-c2noc(CN(C)Cc3ccccc3)n2)c(OC)c1OC | 0.946 | 
COc1ccc(N2C(=O)CN(C(=O)c3ccc(F)cc3F)CC23CCCC3)cc1 |  | 0.777
COCCNC(=O)c1sc2ncnc(NCCc3ccccn3)c2c1C |  | 0.792
CCOC(=O)C1(CC2CC2)CCN(C(=O)CCn2c(C)nc3ccccc32)CC1 |  | 0.787
COCc1ccc(CN2CCCC(CCC(=O)Nc3cc(Cl)ccc3OC)C2)o1 (configuration not stated) | 1.13 | 
CCOc1ccccc1CN1CCN(Cc2ccccc2C)CC1CCO (configuration not stated) | 1.11 | 
CN(Cc1ccccc1)C(=O)CCc1nnc(CCc2c[nH]c3ccccc23)o1 | 0.81 | 
O=C(c1csc2nc(-c3ccc(C(F)(F)F)cc3)cn12)N1CCN2CCCC2C1 (configuration not stated) | 0.751 | 
CCCCn1c(CN2CCCCC2CCc2ccccn2)cnc1S(=O)(=O)CC (configuration not stated) | 0.006 | 

Rewritten in CSV form: entries from further up
SMILES,bacterial growth OD600 (polymyxin B 1 µg/mL),bacterial growth OD600 (polymyxin B 0.75 µg/mL)
CCOc1ccccc1CN1CCN(Cc2ccccc2C)CC1CCO (configuration not stated),1.11,
CN(Cc1ccccc1)C(=O)CCc1nnc(CCc2c[nH]c3ccccc23)o1,0.81,
